Measured values from PubChem BioAssay AID1543 (National Center for Advancing Translational Sciences (NCATS), 2009).
Inconclusive results, whose numbers are uncertain, are shown with a selection of clear calls. A potency beside an inconclusive call is a rough fit, not a confirmed value. The source made the active and inactive calls. Calls follow the shape of the dose curve; as a rule, active = well fitted activation curve with a large enough effect; inconclusive = small, poorly fitted or top-dose-only effect, or effect the other way; inactive = flat fitted curve, though single readings scatter.

Amino acid sequences for entries named in this document (tags omitted). A change or cut given only in a name is not applied to a line headed by its entry.
UniProt P30613: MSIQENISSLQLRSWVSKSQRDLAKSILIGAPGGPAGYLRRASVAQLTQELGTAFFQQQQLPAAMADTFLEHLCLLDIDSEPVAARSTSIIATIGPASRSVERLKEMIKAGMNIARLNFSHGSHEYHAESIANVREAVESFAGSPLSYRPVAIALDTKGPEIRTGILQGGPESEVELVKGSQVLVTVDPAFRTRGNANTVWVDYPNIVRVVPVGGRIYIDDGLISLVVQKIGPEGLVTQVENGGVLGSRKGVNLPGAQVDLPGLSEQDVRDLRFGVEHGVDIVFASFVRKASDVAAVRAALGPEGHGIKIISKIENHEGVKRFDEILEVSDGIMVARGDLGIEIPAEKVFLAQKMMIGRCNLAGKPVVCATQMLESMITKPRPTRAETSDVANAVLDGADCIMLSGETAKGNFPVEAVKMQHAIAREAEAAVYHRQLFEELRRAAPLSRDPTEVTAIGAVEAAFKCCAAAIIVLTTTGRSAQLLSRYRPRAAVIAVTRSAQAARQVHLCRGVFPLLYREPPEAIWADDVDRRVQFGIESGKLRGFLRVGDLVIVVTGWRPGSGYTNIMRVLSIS

target: Pyruvate kinase PKLR (Homo sapiens) (UniProt P30613); test: Secondary assay for Activators of Human Reticulocyte Pyruvate Kinase; settings: purified hPK-R, LDH-coupled NADH fluorescence kinetic; activation: at 57.5 µM (top of the series)
Excerpt: Confirmatory assay NIH Chemical Genomics Center [NCGC] Wael M. Rabeh, Lyudmila Nedyalkova and Hee-Wan Park [Structural Genomics Consortium, 100 College St. Toronto, Ontario, Canada] NCGC Assay Overview: Human pyruvate kinase reticulocyte (hPK-R) enzyme was supplied as a highly purified (>95% pure) preparation from Structural Genomics Consortium in Toronto (Ontario, Canada) and a secondary assay was used to evaluate compounds. This assay couples the formation of pyruvate from hPK-R using lactate dehydrogenase (LDH) and NADH. The depletion of NADH is followed in a fluorescent-based kinetic assay that follows the formation of pyruvate to lactate, as catalyzed LDH. Pyruvate kinase substrates, PEP and ADP, were present in the assay at 0.1 mM and 4 mM respectively. In this kinetic assay initial rates were determined by following the fluorescence of NADH depletion.
NCGC Assay Protocol Summary: Three uL of substrate mix (final concentration, 50 mM Tris-Cl pH 8.0, 200 mM KCl, 15 mM MgCl2, 0.1 mM PEP, 4.0 mM ADP, and 0.2 mM NADH) was dispensed into black-solid 1536 well plates. 23 nL of compounds were delivered by a pin tool and 1 uL of enzyme mix (final concentrations, 10 nM hPK-R and 1 uM of LDH) was added. Plates were immediately placed in ViewLux (Perkin Elmer) and NADH fluorescence was determined at 30 second exposure intervals for between 3 and 6 minutes. Data were normalized to the uninhibited and EC100 activation using known activators such as fructose-bis-phosphate.

Potency, inconclusive:
CCn1c2cc(C)sc2c2cnn(Cc3ccccc3F)c(=O)c21 15800 nM [rising, partial curve, poor fit]
C[C@@H]1CN(S(=O)(=O)c2c(F)cccc2F)CCN1S(=O)(=O)c1ccc2c(c1)OCCO2 31600 nM [rising, partial curve, poor fit]
O=S(=O)(NCCCCCNS(=O)(=O)c1c(F)cccc1F)c1ccc2c(c1)OCCO2 1.8 nM [rising, full curve, poor fit]
O=S(=O)(c1ccc2c(c1)OCCO2)N1CCCN(S(=O)(=O)c2c(F)cccc2F)CC1 39800 nM [rising, single point]
Cc1cc2c(s1)c1cnn(Cc3ccc(F)cc3)c(=O)c1n2C 5620 nM [rising, full curve]
O=S(=O)(c1c(F)cccc1F)C1CCN(S(=O)(=O)c2ccc3c(c2)OCCO3)CC1 3.5 nM [rising, full curve, poor fit]
Cc1cc2c(s1)c1cnn(Cc3ccccc3F)c(=O)c1n2C(C)C 1.6 nM [rising, full curve, poor fit]
O=S(=O)(NC1CCN(S(=O)(=O)c2ccc3c(c2)OCCO3)C1)c1c(F)cccc1F (stereo not given) 7940 nM [rising, full curve, poor fit]
Cc1cc2c(s1)c1cnn(Cc3ccc(F)c(F)c3F)c(=O)c1n2C 1.6 nM [rising, full curve, poor fit]
Cc1cc2c(s1)c1cnn(Cc3ccccc3Cl)c(=O)c1n2C 11200 nM [rising, full curve, poor fit]
Cc1cc2c(s1)c1cnn(Cc3c(F)cccc3F)c(=O)c1n2C 447 nM [rising, full curve]
Cc1cc2c(s1)c1cnn(Cc3cccc(Cn4ncc5c6sc(C)cc6n(C)c5c4=O)c3F)c(=O)c1n2C 25100 nM [inhibitor, partial curve, poor fit]
Cn1c2ccsc2c2ncn(Cc3ccccc3F)c(=O)c21 631 nM [inhibitor, full curve, poor fit]
O=S(=O)(NCC1CN(S(=O)(=O)c2ccc3c(c2)OCCO3)C1)c1c(F)cccc1F 282 nM [rising, full curve, poor fit]
Cc1cc2c(s1)c1cnn(Cc3ccc(C(F)(F)F)cc3)c(=O)c1n2C 447 nM [inhibitor, full curve, poor fit]
Cc1ccc(Cn2ncc3c4sc(C)cc4n(C)c3c2=O)c(C)c1 562 nM [rising, full curve, poor fit]
O=S(=O)(c1ccccc1)N1CCN(S(=O)(=O)c2ccc3c(c2)OCCO3)CC1 501 nM [rising, partial curve, poor fit]
O=S(=O)(NC1CCN(S(=O)(=O)c2ccc3c(c2)OCCO3)CC1)c1c(F)cccc1F 2.2 nM [rising, full curve, poor fit]
O=S(=O)(c1ccc2c(c1)OCCO2)C1CCN(S(=O)(=O)c2c(F)cccc2F)CC1 20 nM [rising, full curve, poor fit]
Cc1cc2c(s1)c1cnn(Cc3ccc(S(C)(=O)=O)cc3)c(=O)c1n2C 1 nM [inhibitor, full curve, poor fit]
O=S(=O)(c1ccc2c(c1)OCCO2)N1CCN(S(=O)(=O)c2ccccc2F)CC1 251 nM [rising, full curve]
O=C(CN1C(=O)N/C(=C\c2cccn2-c2cccc(C(=O)O)c2)C1=O)Nc1ccccc1F 0.6 nM
Cc1ccc(Cn2ncc3c4sc(C)cc4n(C)c3c2=O)cc1 12600 nM [rising, full curve, poor fit]
Cn1c2cc(B(O)O)sc2c2cnn(Cc3ccccc3F)c(=O)c21 4470 nM [inhibitor, full curve, poor fit]
COc1cc(F)c(S(=O)(=O)N2CCN(S(=O)(=O)c3ccc4c(c3)OCCO4)CC2)c(F)c1 12.6 nM [rising, full curve, poor fit]
O=S(=O)(NC1CCN(S(=O)(=O)c2c(F)cccc2F)CC1)c1ccc2c(c1)OCCO2 5010 nM [inhibitor, partial curve, poor fit]
O=S(=O)(NCCCCNS(=O)(=O)c1c(F)cccc1F)c1ccc2c(c1)OCCO2 31.6 nM [rising, full curve, poor fit]
Cn1c2cc([N+](=O)[O-])sc2c2cnn(Cc3ccccc3F)c(=O)c21 1410 nM [rising, full curve]
O=S(=O)(NCCNS(=O)(=O)c1c(F)cccc1F)c1ccc2c(c1)OCCO2 22.4 nM [inhibitor, full curve, poor fit]
O=S(=O)(c1ccc2c(c1)OCCO2)N1CCN(S(=O)(=O)c2ccc(F)cc2F)CC1 22.4 nM [rising, full curve, poor fit]
O=C1CN(S(=O)(=O)c2c(F)cccc2F)CCN1S(=O)(=O)c1ccc2c(c1)OCCO2 17.8 nM [rising, full curve, poor fit]

Three compounds out of the list, ordered by count of non-hydrogen atoms, smallest number first:
Potency, inconclusive:
Cc1cc2c(s1)c1cnn(Cc3ccccc3Cl)c(=O)c1n2C 11200 nM [rising, full curve, poor fit]
CCn1c2cc(C)sc2c2cnn(Cc3ccccc3F)c(=O)c21 15800 nM [rising, partial curve, poor fit]
O=S(=O)(c1ccc2c(c1)OCCO2)N1CCCN(S(=O)(=O)c2c(F)cccc2F)CC1 39800 nM [rising, single point]

Following part:

Potency, active:
COc1ccc(Cn2ncc3c4sc(C)cc4n(C)c3c2=O)cc1 631 nM
Cn1c2cc(S(C)=O)sc2c2cnn(Cc3ccccc3F)c(=O)c21 (stereo not given) 1120 nM
Cn1c2cc(C=O)sc2c2cnn(Cc3ccccc3F)c(=O)c21 398 nM

Potency, inactive:
O=S(=O)(c1cccc(F)c1)N1CCN(S(=O)(=O)c2ccc3c(c2)OCCO3)CC1
C[C@@H]1CN(S(=O)(=O)c2ccc3c(c2)OCCO3)CCN1S(=O)(=O)c1c(F)cccc1F
O=S(=O)(c1c(F)cccc1F)N1CCN(S(=O)(=O)c2c(F)cccc2F)CC1
O=S(=O)(c1ccc2c(c1)OCCO2)N1CCN(S(=O)(=O)c2ccc3c(c2)OCCO3)CC1
CCCCCn1ncc2c3sc(C)cc3n(C)c2c1=O
O=S(=O)(c1ccc2c(c1)OCO2)N1CCN(S(=O)(=O)c2c(F)cccc2F)CC1
